{
  "sequences": {"note": "Amino acid sequences for entries named in this document (tags omitted). A change or cut given only in a name is not applied to a line headed by its entry.", "UniProt Q13438": "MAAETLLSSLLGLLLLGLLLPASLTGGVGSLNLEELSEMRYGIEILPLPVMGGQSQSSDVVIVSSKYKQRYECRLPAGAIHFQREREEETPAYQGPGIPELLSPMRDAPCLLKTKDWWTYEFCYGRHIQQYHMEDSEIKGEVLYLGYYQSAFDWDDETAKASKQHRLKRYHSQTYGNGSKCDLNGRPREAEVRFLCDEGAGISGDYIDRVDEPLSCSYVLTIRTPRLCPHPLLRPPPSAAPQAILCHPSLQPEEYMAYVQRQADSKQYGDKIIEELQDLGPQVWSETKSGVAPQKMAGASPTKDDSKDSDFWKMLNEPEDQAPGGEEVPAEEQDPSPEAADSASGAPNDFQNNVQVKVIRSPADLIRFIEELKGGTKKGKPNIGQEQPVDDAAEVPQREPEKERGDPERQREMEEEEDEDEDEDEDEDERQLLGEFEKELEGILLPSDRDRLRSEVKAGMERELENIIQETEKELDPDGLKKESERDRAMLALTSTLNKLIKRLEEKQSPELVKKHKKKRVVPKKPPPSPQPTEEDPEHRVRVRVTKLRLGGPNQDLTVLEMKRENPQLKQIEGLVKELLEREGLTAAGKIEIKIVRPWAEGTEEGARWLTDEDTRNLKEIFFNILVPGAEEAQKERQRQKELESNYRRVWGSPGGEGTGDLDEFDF", "UniProt Q86UY8": "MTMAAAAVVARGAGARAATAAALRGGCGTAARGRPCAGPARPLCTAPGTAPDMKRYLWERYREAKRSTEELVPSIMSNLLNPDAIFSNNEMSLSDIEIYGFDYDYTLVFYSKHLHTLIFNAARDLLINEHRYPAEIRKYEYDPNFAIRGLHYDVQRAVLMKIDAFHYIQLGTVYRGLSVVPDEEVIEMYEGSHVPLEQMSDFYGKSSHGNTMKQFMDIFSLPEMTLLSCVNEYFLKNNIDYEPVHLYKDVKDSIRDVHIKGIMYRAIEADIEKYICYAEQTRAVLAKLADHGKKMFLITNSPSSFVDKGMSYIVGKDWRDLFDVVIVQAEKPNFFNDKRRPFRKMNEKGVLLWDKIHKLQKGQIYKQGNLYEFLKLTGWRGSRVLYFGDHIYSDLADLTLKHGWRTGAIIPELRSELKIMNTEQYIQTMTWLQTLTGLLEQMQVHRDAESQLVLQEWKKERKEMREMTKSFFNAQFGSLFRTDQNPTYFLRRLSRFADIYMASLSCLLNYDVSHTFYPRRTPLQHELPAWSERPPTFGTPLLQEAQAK", "UniProt Q8TEA1": "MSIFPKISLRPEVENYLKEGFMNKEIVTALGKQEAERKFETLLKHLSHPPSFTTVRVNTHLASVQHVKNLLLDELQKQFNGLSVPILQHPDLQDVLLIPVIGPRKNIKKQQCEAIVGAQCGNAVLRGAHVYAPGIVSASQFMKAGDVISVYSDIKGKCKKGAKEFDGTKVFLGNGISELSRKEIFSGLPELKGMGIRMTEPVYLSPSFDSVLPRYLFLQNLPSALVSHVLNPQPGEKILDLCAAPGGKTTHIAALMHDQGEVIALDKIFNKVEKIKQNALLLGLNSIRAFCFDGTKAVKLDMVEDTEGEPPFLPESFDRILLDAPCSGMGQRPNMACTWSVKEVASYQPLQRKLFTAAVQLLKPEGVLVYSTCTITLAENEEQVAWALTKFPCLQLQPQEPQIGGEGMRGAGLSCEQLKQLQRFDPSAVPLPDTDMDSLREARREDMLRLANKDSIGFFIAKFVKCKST", "UniProt P49790, whole entry, looked up": "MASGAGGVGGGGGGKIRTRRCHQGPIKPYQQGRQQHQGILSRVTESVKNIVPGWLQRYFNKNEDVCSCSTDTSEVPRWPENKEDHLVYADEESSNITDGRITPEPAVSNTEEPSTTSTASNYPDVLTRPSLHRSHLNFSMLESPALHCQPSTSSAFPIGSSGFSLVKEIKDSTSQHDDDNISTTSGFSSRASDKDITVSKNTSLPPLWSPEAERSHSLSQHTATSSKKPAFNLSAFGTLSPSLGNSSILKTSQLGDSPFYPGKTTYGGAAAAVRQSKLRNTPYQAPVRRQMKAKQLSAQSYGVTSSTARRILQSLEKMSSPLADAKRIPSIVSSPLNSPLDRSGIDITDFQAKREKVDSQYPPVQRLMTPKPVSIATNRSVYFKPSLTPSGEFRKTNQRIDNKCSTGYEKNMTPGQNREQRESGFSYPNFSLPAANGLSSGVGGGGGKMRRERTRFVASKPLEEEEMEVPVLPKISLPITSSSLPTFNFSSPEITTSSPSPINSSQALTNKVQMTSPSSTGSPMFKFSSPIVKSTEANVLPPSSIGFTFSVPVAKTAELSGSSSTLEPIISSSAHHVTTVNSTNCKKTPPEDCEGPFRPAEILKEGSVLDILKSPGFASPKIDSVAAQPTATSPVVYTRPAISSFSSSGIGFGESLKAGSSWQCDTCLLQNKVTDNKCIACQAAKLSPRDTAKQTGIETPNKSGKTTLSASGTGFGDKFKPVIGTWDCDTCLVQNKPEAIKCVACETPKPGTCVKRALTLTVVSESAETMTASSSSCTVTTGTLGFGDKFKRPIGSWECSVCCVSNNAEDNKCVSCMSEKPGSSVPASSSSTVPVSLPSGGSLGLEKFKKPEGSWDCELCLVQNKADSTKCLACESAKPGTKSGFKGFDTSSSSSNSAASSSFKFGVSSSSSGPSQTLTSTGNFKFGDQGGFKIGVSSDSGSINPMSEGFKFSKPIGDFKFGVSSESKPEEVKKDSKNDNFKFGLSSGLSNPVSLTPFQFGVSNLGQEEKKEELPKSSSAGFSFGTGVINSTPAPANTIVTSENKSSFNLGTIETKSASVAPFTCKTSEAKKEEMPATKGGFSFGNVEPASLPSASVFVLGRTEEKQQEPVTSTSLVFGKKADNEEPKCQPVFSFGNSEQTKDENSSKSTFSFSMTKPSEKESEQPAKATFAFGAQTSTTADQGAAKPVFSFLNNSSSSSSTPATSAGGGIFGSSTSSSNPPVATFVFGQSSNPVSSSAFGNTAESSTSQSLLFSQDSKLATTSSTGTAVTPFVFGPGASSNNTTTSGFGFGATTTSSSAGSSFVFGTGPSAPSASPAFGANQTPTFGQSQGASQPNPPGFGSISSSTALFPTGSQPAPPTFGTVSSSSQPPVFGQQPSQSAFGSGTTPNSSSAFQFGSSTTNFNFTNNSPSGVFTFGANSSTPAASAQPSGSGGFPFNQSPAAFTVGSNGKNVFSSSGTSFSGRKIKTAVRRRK", "UniProt Q9NZJ9": "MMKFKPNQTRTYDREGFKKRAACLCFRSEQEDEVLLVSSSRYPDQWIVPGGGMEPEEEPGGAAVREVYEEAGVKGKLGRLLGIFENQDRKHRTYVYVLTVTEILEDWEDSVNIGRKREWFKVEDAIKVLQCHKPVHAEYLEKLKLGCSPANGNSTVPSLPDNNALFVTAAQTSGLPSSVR", "UniProt Q9BXS6": "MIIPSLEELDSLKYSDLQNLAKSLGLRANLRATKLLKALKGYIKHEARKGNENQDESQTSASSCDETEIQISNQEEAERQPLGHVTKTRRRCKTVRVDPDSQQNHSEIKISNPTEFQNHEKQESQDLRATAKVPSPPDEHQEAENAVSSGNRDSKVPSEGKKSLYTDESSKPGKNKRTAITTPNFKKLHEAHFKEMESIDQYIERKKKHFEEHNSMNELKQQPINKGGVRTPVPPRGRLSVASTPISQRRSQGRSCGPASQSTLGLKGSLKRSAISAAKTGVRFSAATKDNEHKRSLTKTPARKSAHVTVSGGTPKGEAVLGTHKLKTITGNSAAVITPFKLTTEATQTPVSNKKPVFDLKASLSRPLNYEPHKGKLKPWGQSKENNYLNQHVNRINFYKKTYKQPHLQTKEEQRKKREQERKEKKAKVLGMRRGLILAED", "UniProt Q9NTK5, whole entry, looked up": "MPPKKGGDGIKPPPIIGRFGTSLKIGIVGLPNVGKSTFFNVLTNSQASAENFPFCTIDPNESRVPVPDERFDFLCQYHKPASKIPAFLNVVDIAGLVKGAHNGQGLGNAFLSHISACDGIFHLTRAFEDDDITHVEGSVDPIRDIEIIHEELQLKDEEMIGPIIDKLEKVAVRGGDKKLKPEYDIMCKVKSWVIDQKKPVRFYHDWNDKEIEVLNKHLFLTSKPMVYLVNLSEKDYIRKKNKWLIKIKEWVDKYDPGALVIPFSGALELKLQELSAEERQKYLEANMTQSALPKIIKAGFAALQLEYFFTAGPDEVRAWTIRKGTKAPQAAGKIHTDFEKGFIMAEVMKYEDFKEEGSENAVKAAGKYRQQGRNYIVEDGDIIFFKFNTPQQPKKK", "UniProt Q9Y5A7": "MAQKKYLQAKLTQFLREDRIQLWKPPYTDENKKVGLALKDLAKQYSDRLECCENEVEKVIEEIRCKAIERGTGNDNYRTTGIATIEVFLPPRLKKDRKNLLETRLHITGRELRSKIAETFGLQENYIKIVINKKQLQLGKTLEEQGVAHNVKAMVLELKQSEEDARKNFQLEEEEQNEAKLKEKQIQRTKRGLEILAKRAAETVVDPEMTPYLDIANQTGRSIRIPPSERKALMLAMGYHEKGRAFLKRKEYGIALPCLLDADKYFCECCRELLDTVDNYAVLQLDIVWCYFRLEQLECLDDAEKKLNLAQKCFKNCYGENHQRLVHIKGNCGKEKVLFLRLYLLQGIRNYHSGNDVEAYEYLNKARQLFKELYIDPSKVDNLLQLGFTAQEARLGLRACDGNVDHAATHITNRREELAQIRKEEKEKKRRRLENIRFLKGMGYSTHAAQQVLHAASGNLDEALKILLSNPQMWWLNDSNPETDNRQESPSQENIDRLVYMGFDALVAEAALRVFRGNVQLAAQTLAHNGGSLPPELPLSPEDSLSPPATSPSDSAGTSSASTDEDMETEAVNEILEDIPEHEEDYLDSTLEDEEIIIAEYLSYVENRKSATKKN", "UniProt Q96E22": "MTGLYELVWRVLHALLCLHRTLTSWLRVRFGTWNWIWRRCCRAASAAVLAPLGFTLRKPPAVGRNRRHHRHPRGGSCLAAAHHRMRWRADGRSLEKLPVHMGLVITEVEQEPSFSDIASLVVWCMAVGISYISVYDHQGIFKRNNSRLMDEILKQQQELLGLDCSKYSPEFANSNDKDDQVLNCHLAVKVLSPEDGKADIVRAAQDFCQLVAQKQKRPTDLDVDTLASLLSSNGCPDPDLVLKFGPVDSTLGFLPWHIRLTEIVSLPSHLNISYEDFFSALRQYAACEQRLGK", "UniProt O15504": "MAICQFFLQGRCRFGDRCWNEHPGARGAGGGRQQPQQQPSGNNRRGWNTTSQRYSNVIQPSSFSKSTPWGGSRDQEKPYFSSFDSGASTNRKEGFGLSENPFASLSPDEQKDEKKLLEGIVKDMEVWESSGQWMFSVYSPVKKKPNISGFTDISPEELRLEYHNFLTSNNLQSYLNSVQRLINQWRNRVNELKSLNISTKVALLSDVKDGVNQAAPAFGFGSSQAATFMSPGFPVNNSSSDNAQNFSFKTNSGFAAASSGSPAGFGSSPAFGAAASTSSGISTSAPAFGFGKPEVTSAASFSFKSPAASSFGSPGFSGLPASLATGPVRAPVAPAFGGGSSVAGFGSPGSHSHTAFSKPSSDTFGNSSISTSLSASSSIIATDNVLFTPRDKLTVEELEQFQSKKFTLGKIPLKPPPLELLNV", "UniProt Q02218": "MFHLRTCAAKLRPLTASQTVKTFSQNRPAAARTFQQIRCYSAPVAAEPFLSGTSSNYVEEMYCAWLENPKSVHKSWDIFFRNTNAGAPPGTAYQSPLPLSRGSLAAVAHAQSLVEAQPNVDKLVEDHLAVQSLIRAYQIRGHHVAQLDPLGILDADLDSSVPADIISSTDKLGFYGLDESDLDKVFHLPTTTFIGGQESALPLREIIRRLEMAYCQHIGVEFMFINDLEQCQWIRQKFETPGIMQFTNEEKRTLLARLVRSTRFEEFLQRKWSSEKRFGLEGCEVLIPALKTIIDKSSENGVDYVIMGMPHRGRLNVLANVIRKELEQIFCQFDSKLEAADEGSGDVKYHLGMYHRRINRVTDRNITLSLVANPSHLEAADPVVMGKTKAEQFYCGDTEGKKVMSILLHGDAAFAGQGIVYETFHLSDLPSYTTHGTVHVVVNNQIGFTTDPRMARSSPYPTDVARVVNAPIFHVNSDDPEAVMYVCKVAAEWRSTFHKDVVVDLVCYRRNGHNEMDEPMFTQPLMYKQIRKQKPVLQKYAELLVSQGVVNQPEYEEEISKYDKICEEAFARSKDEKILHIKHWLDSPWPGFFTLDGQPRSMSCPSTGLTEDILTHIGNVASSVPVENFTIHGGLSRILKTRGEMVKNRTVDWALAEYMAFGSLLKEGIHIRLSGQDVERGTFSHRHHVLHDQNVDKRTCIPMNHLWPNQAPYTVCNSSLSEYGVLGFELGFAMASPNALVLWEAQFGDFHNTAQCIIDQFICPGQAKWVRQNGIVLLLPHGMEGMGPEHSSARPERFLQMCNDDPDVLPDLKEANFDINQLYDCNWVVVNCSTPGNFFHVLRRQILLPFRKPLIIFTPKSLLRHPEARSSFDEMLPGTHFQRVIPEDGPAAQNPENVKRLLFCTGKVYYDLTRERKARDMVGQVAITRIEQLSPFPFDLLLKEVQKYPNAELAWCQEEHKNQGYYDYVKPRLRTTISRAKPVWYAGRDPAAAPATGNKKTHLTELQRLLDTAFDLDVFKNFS"},
  "source": "the supplement of paper PMC10849652",
  "note": "The list shows a part of the results.",
  "data": [
    {"compound": "CS(=O)(=O)c1ccc(-c2cnc(N)c(C(=O)Nc3ccccc3)n2)cc1", "assay": "log2 fold change, soluble protein after heating vs DMSO (PISA); higher = thermal stabilisation; K562 cells, 10 uM, 30 min; active = over 0.2 and 3.5 SD of the protein, either way, in both replicates (recomputed)", "outline": "(§1)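 K562 cells at 2×10^6 cells/mL were treated with 10 μM compound for 30 min. Aliquots were heated for 3 min across 48°C-58°C, pooled, and extracted in PBS with 0.5% NP-40 at 4°C; soluble protein was the supernatant after 21,000xg for 90 min. Soluble protein was quantified by TMTpro 16plex LC-MS/MS with channel sums equalised, and reported as log2 fold change in thermal stability against DMSO controls, with values from duplicates.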", "values": [
      {"target": "NT5C2 (UniProt P49902)", "log2 fold change": "inactive: 0.034"},
      {"target": "ORC4 (UniProt O43929)", "log2 fold change": "inactive: -0.002"},
      {"target": "NUDT16L1 (UniProt Q9BRJ7)", "log2 fold change": "inactive: -0.023"},
      {"target": "OS9 (UniProt Q13438)", "log2 fold change": "inactive: -0.03"},
      {"target": "NUDT19 (UniProt A8MXV4)", "log2 fold change": "inactive: 0.041"},
      {"target": "PABPC1 (UniProt P11940)", "log2 fold change": "inactive: -0.09"},
      {"target": "NT5DC3 (UniProt Q86UY8)", "log2 fold change": "inactive: 0.027"},
      {"target": "NUP37 (UniProt Q8NFH4)", "log2 fold change": "inactive: -0.087"},
      {"target": "OPTN (UniProt Q96CV9)", "log2 fold change": "inactive: 0.089"},
      {"target": "NUP43 (UniProt Q8NFH3)", "log2 fold change": "inactive: -0.018"},
      {"target": "OTUD7B (UniProt Q6GQQ9)", "log2 fold change": "inactive: 0.039"},
      {"target": "NSUN6 (UniProt Q8TEA1)", "log2 fold change": "inactive: 0.042"},
      {"target": "NUP153 (UniProt P49790)", "log2 fold change": "inactive: 0.042"},
      {"target": "P4HA1 (UniProt P13674)", "log2 fold change": "inactive: 0.03"},
      {"target": "OTUB1 (UniProt Q96FW1)", "log2 fold change": "inactive: 0.003"},
      {"target": "P3H1 (UniProt Q32P28)", "log2 fold change": "inactive: 0.06"},
      {"target": "NUP88 (UniProt Q99567)", "log2 fold change": "inactive: 0.049"},
      {"target": "OSTF1 (UniProt Q92882)", "log2 fold change": "inactive: 0.066"},
      {"target": "NUDT4 (UniProt Q9NZJ9)", "log2 fold change": "inactive: 0.057"},
      {"target": "NUSAP1 (UniProt Q9BXS6)", "log2 fold change": "inactive: -0.003"},
      {"target": "OIP5 (UniProt O43482)", "log2 fold change": "inactive: 0.116"},
      {"target": "OLA1 (UniProt Q9NTK5)", "log2 fold change": "inactive: -0.006"},
      {"target": "NUB1 (UniProt Q9Y5A7)", "log2 fold change": "inactive: -0.01"},
      {"target": "NUBP2 (UniProt Q9Y5Y2)", "log2 fold change": "inactive: 0.013"},
      {"target": "OGFOD3 isoform 2 (UniProt Q6PK18)", "log2 fold change": "inactive: 0.001"},
      {"target": "NUS1 (UniProt Q96E22)", "log2 fold change": "inactive: -0.045"},
      {"target": "NUBPL (UniProt Q8TB37)", "log2 fold change": "inactive: -0.052"},
      {"target": "NUP42 (UniProt O15504)", "log2 fold change": "inactive: 0"},
      {"target": "OGDH (UniProt Q02218)", "log2 fold change": "inactive: 0.036"},
      {"target": "P4HA1 isoform 2 (UniProt P13674)", "log2 fold change": "inactive: 0.066"},
      {"target": "NT5DC2 isoform 2 (UniProt Q9H857)", "log2 fold change": "inactive: 0"},
      {"target": "NUTF2 (UniProt P61970)", "log2 fold change": "inactive: -0.01"}
    ]},
    {"compound": "C[C@@H](Oc1cc(-c2cnn(C3CCNCC3)c2)cnc1N)c1c(Cl)ccc(F)c1Cl [crizotinib]", "assay": "log2 fold change, soluble protein after heating vs DMSO (PISA); higher = thermal stabilisation; K562 cells, 10 uM, 30 min; active = over 0.2 and 3.5 SD of the protein, either way, in both replicates (recomputed)", "outline": "as §1", "values": [
      {"target": "NT5C2 (UniProt P49902)", "log2 fold change": "inactive: 0.029"},
      {"target": "ORC4 (UniProt O43929)", "log2 fold change": "inactive: -0.241"},
      {"target": "NUDT16L1 (UniProt Q9BRJ7)", "log2 fold change": "inactive: -0.007"},
      {"target": "OS9 (UniProt Q13438)", "log2 fold change": "inactive: 0.024"},
      {"target": "NUDT19 (UniProt A8MXV4)", "log2 fold change": "inactive: 0.109"},
      {"target": "PABPC1 (UniProt P11940)", "log2 fold change": "inactive: 0.044"},
      {"target": "NT5DC3 (UniProt Q86UY8)", "log2 fold change": "inactive: 0.087"},
      {"target": "NUP37 (UniProt Q8NFH4)", "log2 fold change": "inactive: 0.013"},
      {"target": "OPTN (UniProt Q96CV9)", "log2 fold change": "inactive: 0.132"},
      {"target": "NUP43 (UniProt Q8NFH3)", "log2 fold change": "inactive: -0.02"},
      {"target": "OTUD7B (UniProt Q6GQQ9)", "log2 fold change": "inactive: -0.031"},
      {"target": "NSUN6 (UniProt Q8TEA1)", "log2 fold change": "inactive: 0.008"},
      {"target": "NUP153 (UniProt P49790)", "log2 fold change": "inactive: -0.009"},
      {"target": "P4HA1 (UniProt P13674)", "log2 fold change": "inactive: 0.037"},
      {"target": "OTUB1 (UniProt Q96FW1)", "log2 fold change": "inactive: -0.111"},
      {"target": "P3H1 (UniProt Q32P28)", "log2 fold change": "inactive: 0.051"},
      {"target": "NUP88 (UniProt Q99567)", "log2 fold change": "inactive: -0.142"},
      {"target": "OSTF1 (UniProt Q92882)", "log2 fold change": "inactive: -0.031"},
      {"target": "NUDT4 (UniProt Q9NZJ9)", "log2 fold change": "inactive: 0.004"},
      {"target": "NUSAP1 (UniProt Q9BXS6)", "log2 fold change": "inactive: 0.041"},
      {"target": "OIP5 (UniProt O43482)", "log2 fold change": "inactive: 0.026"},
      {"target": "OLA1 (UniProt Q9NTK5)", "log2 fold change": "inactive: -0.028"},
      {"target": "NUB1 (UniProt Q9Y5A7)", "log2 fold change": "inactive: -0.085"},
      {"target": "NUBP2 (UniProt Q9Y5Y2)", "log2 fold change": "inactive: -0.065"},
      {"target": "OGFOD3 isoform 2 (UniProt Q6PK18)", "log2 fold change": "inactive: 0.027"},
      {"target": "NUS1 (UniProt Q96E22)", "log2 fold change": "inactive: 0.073"},
      {"target": "NUBPL (UniProt Q8TB37)", "log2 fold change": "inactive: -0.066"},
      {"target": "NUP42 (UniProt O15504)", "log2 fold change": "inactive: -0.027"},
      {"target": "OGDH (UniProt Q02218)", "log2 fold change": "inactive: 0.034"},
      {"target": "P4HA1 isoform 2 (UniProt P13674)", "log2 fold change": "inactive: 0.045"},
      {"target": "NT5DC2 isoform 2 (UniProt Q9H857)", "log2 fold change": "inactive: 0.048"},
      {"target": "NUTF2 (UniProt P61970)", "log2 fold change": "inactive: 0.054"}
    ]},
    {"compound": "C[C@@H]1COCCN1C2=NC(=NC(=C2)C3(CC3)S(=O)(=O)C)C4=C5C=CNC5=CC=C4", "assay": "log2 fold change, soluble protein after heating vs DMSO (PISA); higher = thermal stabilisation; K562 cells, 10 uM, 30 min; active = over 0.2 and 3.5 SD of the protein, either way, in both replicates (recomputed)", "outline": "as §1", "values": [
      {"target": "NT5C2 (UniProt P49902)", "log2 fold change": "inactive: 0.065"},
      {"target": "ORC4 (UniProt O43929)", "log2 fold change": "inactive: 0.141"},
      {"target": "NUDT16L1 (UniProt Q9BRJ7)", "log2 fold change": "inactive: 0.069"},
      {"target": "OS9 (UniProt Q13438)", "log2 fold change": "inactive: -0.093"},
      {"target": "NUDT19 (UniProt A8MXV4)", "log2 fold change": "inactive: 0.087"},
      {"target": "PABPC1 (UniProt P11940)", "log2 fold change": "inactive: -0.245"},
      {"target": "NT5DC3 (UniProt Q86UY8)", "log2 fold change": "inactive: 0.032"},
      {"target": "NUP37 (UniProt Q8NFH4)", "log2 fold change": "inactive: -0.007"},
      {"target": "OPTN (UniProt Q96CV9)", "log2 fold change": "inactive: -0.045"},
      {"target": "NUP43 (UniProt Q8NFH3)", "log2 fold change": "inactive: -0.018"},
      {"target": "OTUD7B (UniProt Q6GQQ9)", "log2 fold change": "inactive: 0.123"},
      {"target": "NSUN6 (UniProt Q8TEA1)", "log2 fold change": "inactive: 0.062"},
      {"target": "NUP153 (UniProt P49790)", "log2 fold change": "inactive: -0.043"},
      {"target": "P4HA1 (UniProt P13674)", "log2 fold change": "inactive: -0.112"},
      {"target": "OTUB1 (UniProt Q96FW1)", "log2 fold change": "inactive: 0.033"},
      {"target": "P3H1 (UniProt Q32P28)", "log2 fold change": "inactive: -0.108"},
      {"target": "NUP88 (UniProt Q99567)", "log2 fold change": "inactive: -0.038"},
      {"target": "OSTF1 (UniProt Q92882)", "log2 fold change": "inactive: 0.023"},
      {"target": "NUDT4 (UniProt Q9NZJ9)", "log2 fold change": "inactive: -0.02"},
      {"target": "NUSAP1 (UniProt Q9BXS6)", "log2 fold change": "inactive: -0.045"},
      {"target": "OIP5 (UniProt O43482)", "log2 fold change": "inactive: 0.042"},
      {"target": "OLA1 (UniProt Q9NTK5)", "log2 fold change": "inactive: 0.04"},
      {"target": "NUB1 (UniProt Q9Y5A7)", "log2 fold change": "inactive: -0.077"},
      {"target": "NUBP2 (UniProt Q9Y5Y2)", "log2 fold change": "inactive: 0.029"},
      {"target": "OGFOD3 isoform 2 (UniProt Q6PK18)", "log2 fold change": "inactive: 0.005"},
      {"target": "NUS1 (UniProt Q96E22)", "log2 fold change": "inactive: 0.004"},
      {"target": "NUBPL (UniProt Q8TB37)", "log2 fold change": "inactive: 0.072"},
      {"target": "NUP42 (UniProt O15504)", "log2 fold change": "inactive: -0.812"},
      {"target": "OGDH (UniProt Q02218)", "log2 fold change": "inactive: 0.013"},
      {"target": "P4HA1 isoform 2 (UniProt P13674)", "log2 fold change": "inactive: -0.024"},
      {"target": "NT5DC2 isoform 2 (UniProt Q9H857)", "log2 fold change": "inactive: 0.054"},
      {"target": "NUTF2 (UniProt P61970)", "log2 fold change": "inactive: 0.204"}
    ]}
  ]
}
